Assay results: PMC5876348

Chains of the proteins cited; added tags and fusions are not shown.
UniProt Q9Y294: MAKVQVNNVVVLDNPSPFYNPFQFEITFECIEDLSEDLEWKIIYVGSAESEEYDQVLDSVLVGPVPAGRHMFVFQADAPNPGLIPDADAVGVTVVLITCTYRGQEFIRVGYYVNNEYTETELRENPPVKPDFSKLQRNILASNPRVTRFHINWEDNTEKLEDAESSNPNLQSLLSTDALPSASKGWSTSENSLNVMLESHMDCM
UniProt Q5UIP0: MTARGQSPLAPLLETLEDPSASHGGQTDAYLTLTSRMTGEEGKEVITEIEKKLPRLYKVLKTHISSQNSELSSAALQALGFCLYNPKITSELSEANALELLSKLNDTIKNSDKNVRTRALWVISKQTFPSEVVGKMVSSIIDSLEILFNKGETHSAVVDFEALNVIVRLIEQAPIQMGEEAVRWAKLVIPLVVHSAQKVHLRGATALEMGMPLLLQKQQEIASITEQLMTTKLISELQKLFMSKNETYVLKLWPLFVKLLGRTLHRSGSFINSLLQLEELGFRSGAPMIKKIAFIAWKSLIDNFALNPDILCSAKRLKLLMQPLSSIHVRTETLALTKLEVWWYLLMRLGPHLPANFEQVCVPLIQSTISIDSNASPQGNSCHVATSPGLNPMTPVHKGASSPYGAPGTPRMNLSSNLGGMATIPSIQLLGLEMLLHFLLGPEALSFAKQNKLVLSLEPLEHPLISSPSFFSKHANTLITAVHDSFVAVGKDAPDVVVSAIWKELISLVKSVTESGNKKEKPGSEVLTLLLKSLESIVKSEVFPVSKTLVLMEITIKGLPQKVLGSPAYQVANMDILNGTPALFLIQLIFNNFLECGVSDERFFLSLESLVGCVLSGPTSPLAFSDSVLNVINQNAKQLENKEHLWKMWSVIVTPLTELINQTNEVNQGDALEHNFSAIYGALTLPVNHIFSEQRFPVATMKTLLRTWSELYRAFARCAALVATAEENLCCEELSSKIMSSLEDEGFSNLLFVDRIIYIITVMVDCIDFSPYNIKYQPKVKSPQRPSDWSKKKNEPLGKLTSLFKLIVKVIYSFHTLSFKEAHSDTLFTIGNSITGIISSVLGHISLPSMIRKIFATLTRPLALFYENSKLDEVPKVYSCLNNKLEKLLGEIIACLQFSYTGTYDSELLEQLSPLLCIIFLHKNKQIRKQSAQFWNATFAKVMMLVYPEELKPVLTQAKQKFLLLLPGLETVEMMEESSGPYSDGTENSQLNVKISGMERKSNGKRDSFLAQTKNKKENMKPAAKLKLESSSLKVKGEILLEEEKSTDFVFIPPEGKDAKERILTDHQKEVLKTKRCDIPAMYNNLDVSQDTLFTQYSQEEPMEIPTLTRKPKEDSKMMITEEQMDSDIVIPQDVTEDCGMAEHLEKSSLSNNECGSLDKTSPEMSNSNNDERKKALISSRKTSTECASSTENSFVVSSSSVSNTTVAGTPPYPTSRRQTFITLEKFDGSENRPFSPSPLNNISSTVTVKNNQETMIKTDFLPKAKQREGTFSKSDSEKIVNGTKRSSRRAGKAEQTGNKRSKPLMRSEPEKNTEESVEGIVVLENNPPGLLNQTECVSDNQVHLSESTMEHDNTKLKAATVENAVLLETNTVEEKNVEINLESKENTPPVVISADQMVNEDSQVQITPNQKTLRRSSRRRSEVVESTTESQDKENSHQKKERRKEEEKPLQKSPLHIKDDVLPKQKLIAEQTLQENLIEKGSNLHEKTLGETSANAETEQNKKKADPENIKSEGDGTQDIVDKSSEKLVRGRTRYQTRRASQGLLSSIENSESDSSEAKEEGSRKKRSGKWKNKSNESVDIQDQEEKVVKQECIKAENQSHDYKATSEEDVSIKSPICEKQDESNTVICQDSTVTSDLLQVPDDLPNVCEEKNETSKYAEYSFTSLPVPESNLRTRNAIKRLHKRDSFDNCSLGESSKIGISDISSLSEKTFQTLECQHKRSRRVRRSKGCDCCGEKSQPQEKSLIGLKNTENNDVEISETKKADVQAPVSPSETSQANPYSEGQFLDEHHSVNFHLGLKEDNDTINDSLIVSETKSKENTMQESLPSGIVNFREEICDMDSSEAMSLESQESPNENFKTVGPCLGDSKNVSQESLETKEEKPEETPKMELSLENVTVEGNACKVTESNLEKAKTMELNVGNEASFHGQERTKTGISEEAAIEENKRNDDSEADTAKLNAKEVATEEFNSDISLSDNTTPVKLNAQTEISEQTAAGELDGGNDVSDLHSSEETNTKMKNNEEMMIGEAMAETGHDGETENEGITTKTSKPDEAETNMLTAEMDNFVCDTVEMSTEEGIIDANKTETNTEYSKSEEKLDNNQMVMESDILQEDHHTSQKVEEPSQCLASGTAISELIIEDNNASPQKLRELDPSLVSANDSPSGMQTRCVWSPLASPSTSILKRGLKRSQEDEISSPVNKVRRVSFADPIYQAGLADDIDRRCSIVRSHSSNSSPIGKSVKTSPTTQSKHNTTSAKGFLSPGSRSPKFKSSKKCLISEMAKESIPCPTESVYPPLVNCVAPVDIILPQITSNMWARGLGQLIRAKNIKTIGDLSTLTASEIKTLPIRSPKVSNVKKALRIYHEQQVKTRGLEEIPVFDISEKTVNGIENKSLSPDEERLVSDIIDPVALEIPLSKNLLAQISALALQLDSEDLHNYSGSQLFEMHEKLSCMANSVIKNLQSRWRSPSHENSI
UniProt Q9UER7: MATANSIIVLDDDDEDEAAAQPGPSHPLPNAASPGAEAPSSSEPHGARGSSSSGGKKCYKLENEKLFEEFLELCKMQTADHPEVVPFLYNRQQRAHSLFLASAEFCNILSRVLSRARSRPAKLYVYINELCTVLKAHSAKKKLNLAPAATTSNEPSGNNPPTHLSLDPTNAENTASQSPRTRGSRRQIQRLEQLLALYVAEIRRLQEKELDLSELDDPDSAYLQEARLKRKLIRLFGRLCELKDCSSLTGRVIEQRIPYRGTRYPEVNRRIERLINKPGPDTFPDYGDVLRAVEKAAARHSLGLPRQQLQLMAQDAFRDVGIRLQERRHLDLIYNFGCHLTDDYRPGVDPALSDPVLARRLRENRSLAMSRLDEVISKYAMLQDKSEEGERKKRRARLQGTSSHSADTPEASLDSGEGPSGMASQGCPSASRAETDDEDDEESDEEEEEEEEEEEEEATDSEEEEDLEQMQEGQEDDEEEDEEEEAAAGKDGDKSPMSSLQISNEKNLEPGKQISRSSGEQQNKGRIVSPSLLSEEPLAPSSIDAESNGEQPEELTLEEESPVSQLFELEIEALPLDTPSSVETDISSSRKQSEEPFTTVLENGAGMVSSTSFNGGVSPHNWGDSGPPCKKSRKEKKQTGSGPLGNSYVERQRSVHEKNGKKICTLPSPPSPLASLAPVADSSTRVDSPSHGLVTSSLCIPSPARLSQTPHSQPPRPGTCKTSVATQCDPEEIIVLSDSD
UniProt P06748: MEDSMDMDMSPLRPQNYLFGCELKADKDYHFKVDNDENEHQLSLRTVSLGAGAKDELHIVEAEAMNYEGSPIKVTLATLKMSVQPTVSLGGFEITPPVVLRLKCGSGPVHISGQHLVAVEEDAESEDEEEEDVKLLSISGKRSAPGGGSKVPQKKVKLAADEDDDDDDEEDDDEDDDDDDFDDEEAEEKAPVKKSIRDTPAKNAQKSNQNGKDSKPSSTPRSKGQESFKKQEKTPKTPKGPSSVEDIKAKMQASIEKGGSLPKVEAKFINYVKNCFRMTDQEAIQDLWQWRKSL

B1: USP52 (endogenous) (enzyme, UniProt Q504Q3 1-1202)
chain: MNFEGLDPGLAEYAPAMHSALDPVLDAHLNPSLLQNVELDPEGVALEALPVQESVHIMEGVYSELHSVVAEVGVPVSVSHFDLHEEMLWVGSHGGHATSFFGPALERYSSFQVNGSDDIRQIQSLENGILFLTKNNLKYMARGGLIIFDYLLDENEDMHSLLLTDSSTLLVGGLQNHIIEIDLNTVQETQKYAVETPGVTIMRQTNRFFFCGHTSGKVSLRDLRTFKVEHEFDAFSGSLSDFDVHGNLLAACGFSSRLTGLACDRFLKVYDLRMMRAITPLQVHVDPAFLRFIPTYTSRLAIISQSGQCQFCEPTGLANPADIFHVNPVGPLLMTFDVSASKQALAFGDSEGCVHLWTDSPEPSFNPYSRETEFALPCLVDSLPPLDWSQDLLPLSLIPVPLTTDTLLSDWPAANSAPAPRRAPPVDAEILRTMKKVGFIGYAPNPRTRLRNQIPYRLKESDSEFDSFSQVTESPVGREEEPHLHMVSKKYRKVTIKYSKLGLEDFDFKHYNKTLFAGLEPHIPNAYCNCMIQVLYFLEPVRCLIQNHLCQKEFCLACELGFLFHMLDLSRGDPCQGNNFLRAFRTIPEASALGLILADSDEASGKGNLARLIQRWNRFILTQLHQDMQELEIPQAYRGAGGSSFCSSGDSVIGQLFSCEMENCSLCRCGSETVRASSTLLFTLSYPDGSKSDKTGKNYDFAQVLKRSICLDQNTQAWCDTCEKYQPTIQTRNIRHLPDILVINCEVNSSKEADFWRMQAEVAFKMAVKKHGGEISKNKEFALADWKELGSPEGVLVCPSIEELKNVWLPFSIRMKMTKNKGLDVCNWTDGDEMQWGPARAEEEHGVYVYDLMATVVHILDSRTGGSLVAHIKVGETYHQRKEGVTHQQWYLFNDFLIEPIDKHEAVQFDMNWKVPAILYYVKRNLNSRYNLNIKNPIEASVLLAEASLARKQRKTHTTFIPLMLNEMPQIGDLVGLDAEFVTLNEEEAELRSDGTKSTIKPSQMSVARITCVRGQGPNEGIPFIDDYISTQEQVVDYLTQYSGIKPGDLDAKISSKHLTTLKSTYLKLRFLIDIGVKFVGHGLQKDFRVINLMVPKDQVLDTVYLFHMPRKRMISLRFLAWYFLDLKIQGETHDSIEDARTALQLYRKYLELSKNGTEPESFHKVLKGLYEKGRKMDWKVPEPEGQTSPKNAAVFSSVLAL
B2: Codanin (protein, UniProt Q8IWY9 1-1227)
chain: MAAVLESLLREEVSVAAVVRWIARSTQGSEDNAGEAAALSSLRALRKEFVPFLLNFLREQSSRVLPQGPPTPAKTPGASAALPGRPGGPPRGSRGARSQLFPPTEAQSTAAEAPLARRGGRRRGPGPARERGGRGLEEGVSGESLPGAGGRRLRGSGSPSRPSLTLSDPPNLSNLEEFPPVGSVPPGPTGTKPSRRINPTPVSEERSLSKPKTCFTSPPISCVPSSQPSALDTSPWGLGLPPGCRSLQEEREMLRKERSKQLQQSPTPTCPTPELGSPLPSRTGSLTDEPADPARVSSRQRLELVALVYSSCIAENLVPNLFLELFFVFQLLTARRMVTAKDSDPELSPAVLDSLESPLFQSIHDCVFFAVQVLECHFQVLSNLDKGTLKLLAENERLLCFSPALQGRLRAAYEGSVAKVSLVMPPSTQAVSFQPETDNRANFSSDRAFHTFKKQRDVFYEVLREWEDHHEEPGWDFEKGLGSRIRAMMGQLSAACSHSHFVRLFQKQLLQMCQSPGGAGGTVLGEAPDVLSMLGADKLGRLWRLQERLMAPQSSGGPCPPPTFPGCQGFFRDFILSASSFQFNQHLMDSLSLKIQELNGLALPQHEPNDEDGESDVDWQGERKQFAVVLLSLRLLAKFLGFVAFLPYRGPEPPPTGELQDSILALRSQVPPVLDVRTLLQRGLQARRAVLTVPWLVEFLSFADHVVPLLEYYRDIFTLLLRLHRSLVLSQESEGKMCFLNKLLLLAVLGWLFQIPTVPEDLFFLEEGPSYAFEVDTVAPEHGLDNAPVVDQQLLYTCCPYIGELRKLLASWVSGSSGRSGGFMRKITPTTTTSLGAQPSQTSQGLQAQLAQAFFHNQPPSLRRTVEFVAERIGSNCVKHIKATLVADLVRQAESLLQEQLVTQGEEGGDPAQLLEILCSQLCPHGAQALALGREFCQRKSPGAVRALLPEETPAAVLSSAENIAVGLATEKACAWLSANITALIRREVKAAVSRTLRAQGPEPAARGERRGCSRACEHHAPLPSHLISEIKDVLSLAVGPRDPDEGVSPEHLEQLLGQLGQTLRCRQFLCPPAEQHLAKCSVELASLLVADQIPILGPPAQYRLERGQARRLLHMLLSLWKEDFQGPVPLQLLLSPRNVGLLADTRPREWDLLLFLLRELVEKGLMGRMEIEACLGSLHQAQWPGDFAEELATLSNLFLAEPHLPEPQLRACELVQPNRGTVLAQS

target: FLAG-ASF1A (doxycycline-inducible, stably integrated in MCF-7 cells) (UniProt Q9Y294); test: affinity purification with mass spectrometry; whole-cell extracts of MCF-7 cells with Dox-inducible FLAG-ASF1A on an anti-FLAG M2 column; washed with cold PBS plus 0.2% Nonidet P-40; eluted with FLAG peptide; silver-stained bands analysed by LC-MS/MS

binding, binds:
RIF1 (from UniProt Q5UIP0 1-2472), DAXX (from UniProt Q9UER7 1-740), NPM (from UniProt P06748 1-294), B1, B2

Results are given in words; binding and its absence hold for the method and conditions named. Binding seen in cells or lysates may run through a third protein. Here binding means that the protein was enriched with, or labelled near, the bait; the list need not be complete.
